Measured data: PubChem BioAssay AID1508588 (Peter MacCallum Cancer Centre, 2020)
Purpose: 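Genome-wide search for knock-downs that heighten vemurafenib action in melanoma cells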 (primary screen). Cells: human WM266.4 melanoma cells (BRAF V600 mutant). Knock-down reagent: siRNA pool against human genes, 40 nM. Duration: 96 h from transfection to read-out. Challenge: vemurafenib 300 nM (about IC25), added 48 h after transfection, for 48 h; comparison arm got DMSO vehicle only. Read-out: 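Cell gain (DAPI nuclei at end minus before drug, mean of two replicates) and medium lactate by absorbance per cell, both as ratio to non-targeting siRNA, also grouped into fold-change classes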. Direction: cell gain with vemurafenib: higher = more cell gain than with non-targeting siRNA; lactate per cell with vemurafenib: higher = more lactate made per cell. Active means: 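a knock-down counts as enhancing when its fold-change classes with vehicle and with vemurafenib, taken together, show a stronger drug effect on cell gain or lactate per cell; exact class pairs not stated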. Meaning of the calls: active = enhances vemurafenib effect; inactive = no enhancement seen.
The deposit covers about 18,000 reagents; shown is a random part of them. 790 of them (4.4%) were called active. 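Calls rest on a combination of fold-change classes in drug and vehicle arms, not all shown here.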 No sequences are given here.

PSMB2 (GeneID 5690)
- cell gain with vemurafenib: -0.02
- lactate per cell with vemurafenib: 2.09
- activity call: inactive

PMP22 (GeneID 5376)
- cell gain with vemurafenib: 0.68
- lactate per cell with vemurafenib: 0.84
- activity call: inactive

SMARCD3 (GeneID 6604)
- cell gain with vemurafenib: 0.79
- lactate per cell with vemurafenib: 1.43
- activity call: inactive

ADAM23 (GeneID 8745)
- cell gain with vemurafenib: 0.98
- lactate per cell with vemurafenib: 0.56
- activity call: inactive

NDRG3 (GeneID 57446)
- cell gain with vemurafenib: 1.16
- lactate per cell with vemurafenib: 0.2
- activity call: inactive

PDLIM2 (GeneID 64236)
- cell gain with vemurafenib: 0.9
- lactate per cell with vemurafenib: 0.78
- activity call: inactive

CNTN4 (GeneID 152330)
- cell gain with vemurafenib: 0.39
- lactate per cell with vemurafenib: 0.8
- activity call: inactive

EVX2 (GeneID 344191)
- cell gain with vemurafenib: 1.19
- lactate per cell with vemurafenib: 1.75
- activity call: inactive

NELL2 (GeneID 4753)
- cell gain with vemurafenib: 0.63
- lactate per cell with vemurafenib: 0.52
- activity call: inactive

PRL (GeneID 5617)
- cell gain with vemurafenib: 0.79
- lactate per cell with vemurafenib: 0.59
- activity call: inactive

FABP6 (GeneID 2172)
- cell gain with vemurafenib: 0.45
- lactate per cell with vemurafenib: 1.7
- activity call: inactive

LPCAT3 (GeneID 10162)
- cell gain with vemurafenib: 0.31
- lactate per cell with vemurafenib: 2.02
- activity call: inactive

PLXNA1 (GeneID 5361)
- cell gain with vemurafenib: 0.94
- lactate per cell with vemurafenib: 1.16
- activity call: inactive

RGS12 (GeneID 6002)
- cell gain with vemurafenib: 0.71
- lactate per cell with vemurafenib: 1.64
- activity call: inactive

SLC50A1 (GeneID 55974)
- cell gain with vemurafenib: 0.57
- lactate per cell with vemurafenib: 0.9
- activity call: inactive

PTPN23 (GeneID 25930)
- cell gain with vemurafenib: 0.68
- lactate per cell with vemurafenib: 1.52
- activity call: inactive

A run of entries of the results above:
EVX2 (GeneID 344191)
- cell gain with vemurafenib: 1.19
- lactate per cell with vemurafenib: 1.75
- activity call: inactive

NELL2 (GeneID 4753)
- cell gain with vemurafenib: 0.63
- lactate per cell with vemurafenib: 0.52
- activity call: inactive
